Consider one substance from paper PMC12520528.

Chains of the proteins cited; added tags and fusions are not shown. Residues count along the entry.
UniProt Q03405, residues 23-305: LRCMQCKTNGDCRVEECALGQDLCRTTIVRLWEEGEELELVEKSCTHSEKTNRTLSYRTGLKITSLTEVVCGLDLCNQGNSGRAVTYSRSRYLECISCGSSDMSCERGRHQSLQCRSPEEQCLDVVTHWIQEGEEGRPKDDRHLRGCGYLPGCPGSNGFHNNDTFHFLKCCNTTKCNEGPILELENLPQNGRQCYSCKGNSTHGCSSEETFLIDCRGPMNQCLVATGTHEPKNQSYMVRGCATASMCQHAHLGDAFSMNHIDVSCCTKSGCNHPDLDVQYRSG
UniProt P35579: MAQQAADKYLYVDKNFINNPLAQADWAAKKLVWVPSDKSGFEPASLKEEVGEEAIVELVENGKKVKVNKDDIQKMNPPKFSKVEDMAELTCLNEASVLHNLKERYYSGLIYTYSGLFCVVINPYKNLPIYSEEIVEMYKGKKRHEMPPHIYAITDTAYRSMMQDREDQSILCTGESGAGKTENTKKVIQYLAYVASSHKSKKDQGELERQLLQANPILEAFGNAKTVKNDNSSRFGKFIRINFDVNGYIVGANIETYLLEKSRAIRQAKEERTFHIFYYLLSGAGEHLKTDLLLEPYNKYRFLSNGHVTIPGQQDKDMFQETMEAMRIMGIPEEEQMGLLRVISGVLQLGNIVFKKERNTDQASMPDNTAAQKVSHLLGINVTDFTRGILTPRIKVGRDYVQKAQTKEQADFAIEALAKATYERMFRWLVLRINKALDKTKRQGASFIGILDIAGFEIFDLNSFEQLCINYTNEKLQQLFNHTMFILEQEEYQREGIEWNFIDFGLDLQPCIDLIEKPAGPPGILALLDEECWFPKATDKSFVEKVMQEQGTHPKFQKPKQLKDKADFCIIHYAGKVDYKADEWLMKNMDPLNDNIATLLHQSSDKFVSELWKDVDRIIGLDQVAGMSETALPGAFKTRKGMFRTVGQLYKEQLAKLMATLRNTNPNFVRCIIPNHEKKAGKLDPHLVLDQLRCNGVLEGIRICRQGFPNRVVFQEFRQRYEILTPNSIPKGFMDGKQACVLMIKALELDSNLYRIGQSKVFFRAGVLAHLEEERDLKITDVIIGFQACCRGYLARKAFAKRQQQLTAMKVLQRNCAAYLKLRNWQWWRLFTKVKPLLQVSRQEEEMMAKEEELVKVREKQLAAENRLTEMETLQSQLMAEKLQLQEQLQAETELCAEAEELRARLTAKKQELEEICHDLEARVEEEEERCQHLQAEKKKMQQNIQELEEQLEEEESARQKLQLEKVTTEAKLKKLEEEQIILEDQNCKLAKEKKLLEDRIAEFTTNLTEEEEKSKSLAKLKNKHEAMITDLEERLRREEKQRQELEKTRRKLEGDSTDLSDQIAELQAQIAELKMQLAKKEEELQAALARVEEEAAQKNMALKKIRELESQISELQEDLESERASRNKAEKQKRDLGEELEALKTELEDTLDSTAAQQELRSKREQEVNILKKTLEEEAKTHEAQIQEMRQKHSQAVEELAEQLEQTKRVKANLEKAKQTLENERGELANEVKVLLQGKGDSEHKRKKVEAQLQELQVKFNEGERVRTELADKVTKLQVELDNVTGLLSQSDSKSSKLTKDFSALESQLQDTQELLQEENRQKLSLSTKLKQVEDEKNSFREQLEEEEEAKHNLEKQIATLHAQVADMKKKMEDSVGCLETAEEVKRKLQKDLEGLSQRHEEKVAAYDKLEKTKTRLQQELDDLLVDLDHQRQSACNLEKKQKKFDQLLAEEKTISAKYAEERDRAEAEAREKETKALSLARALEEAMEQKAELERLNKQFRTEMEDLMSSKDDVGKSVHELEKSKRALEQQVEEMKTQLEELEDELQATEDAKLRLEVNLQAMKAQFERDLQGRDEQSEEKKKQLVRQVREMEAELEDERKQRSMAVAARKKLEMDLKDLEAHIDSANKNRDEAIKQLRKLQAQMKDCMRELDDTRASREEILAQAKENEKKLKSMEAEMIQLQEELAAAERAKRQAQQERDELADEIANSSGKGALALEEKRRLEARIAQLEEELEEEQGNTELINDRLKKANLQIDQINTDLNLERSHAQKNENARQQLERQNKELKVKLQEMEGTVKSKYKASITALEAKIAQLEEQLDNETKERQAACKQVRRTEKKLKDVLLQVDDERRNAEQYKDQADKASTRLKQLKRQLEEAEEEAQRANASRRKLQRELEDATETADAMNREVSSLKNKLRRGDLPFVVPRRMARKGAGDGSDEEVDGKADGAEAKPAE

Results are given in words; binding and its absence hold for the method and conditions named. In cells and extracts the contact can be indirect. These calls come from enrichment with a bait or labelling near it, and not all partners need be listed.

The assay concerns the target urokinase-type plasminogen activator receptor (PLAUR), endogenous in neutrophils (UniProt Q03405). The assay is described as follows: affinity purification with mass spectrometry; mass spectrometry analysis of neutrophils for PLAUR-interacting proteins; details not told in the main text.

Regarding “myosin heavy chain 9 (MYH9) (from UniProt P35579 1-1960)”, the binding entry is “binds”.
